Drawing on PubChem BioAssay AID2685 (National Center for Advancing Translational Sciences (NCATS), 2010), this text covers cell number change and AC50 for 57 molecules.

The AC50 is the concentration at which the activity in the assay is half-maximal. High values mean weaker potency, low ones greater potency.

The other results are listed elsewhere or left out. The main result of the screen is listed elsewhere. These columns were measured beside it and carry no call. The list favours compounds with an active or inconclusive main result. The note in brackets gives the kind of curve behind each potency; many fits are weak.

The assay is described as follows: qHTS Assay for Lipid Storage Modulators in Drosophila S3 Cells.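 On cell number change: cells counted by Cell Tracker Red CMTPX staining in the red channel.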 As to conditions: BODIPY lipid droplet fluorescence, 18-24 h; for cell number change: measured here: cell count max response, cells fed with added oleic acid. In a few lines: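 Drosophila S3 cells loaded with oleic acid (400 uM, as added) and compounds at several concentrations; lipid droplets imaged by 488-nm laser-scanning cytometry, 500–530 nm intensity and object ratio to cell channel. Percent activity normalized to 20 uM Triacsin C.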

[1] abbreviates: measured here: lipid fluorescence (Fed channel) AC50, cells fed with added oleic acid.
The mark [2] stands for this setting: measured here: cell number channel AC50, cells fed with added oleic acid.

As to `COc1cc2c(cc1OC)CN(C(=O)c1ccccc1C(=O)O)CC2`, the cell number change was -0.881%. Further, the concentration at half-maximal activity (AC50) under setting [1] is 6.51 µM [falling, single point].
Regarding `Cc1cccc(NC(=O)c2cc(=O)c3ccccc3o2)n1`, the cell number change was -22%. For the same molecule, under setting [1], the AC50 was 20.6 µM [falling, single point].
On to `COc1ccc(S(=O)(=O)N2CCCCC2)cc1NC(=O)COc1ccccc1`, for which the AC50 under setting [1] is 1.3 µM [rising, full curve, poor fit].
For `NC(=S)c1c(Cl)cc(C(F)(F)F)cc1Cl`, the cell number change is -8.26%. Also, the AC50 under setting [1] was 0.92 µM [falling, full curve].
As for `CC(=O)c1c(C)[nH]c(C(=O)Nc2cccc(C)c2C)c1C`, the cell number change came to 5.86%. The AC50 under setting [1] is 29.1 µM [rising, single point].
Regarding `NS(=O)(=O)c1ccc(CCNC(=O)COC(=O)COc2cccc(C(F)(F)F)c2)cc1`, the cell number change is 6.92%. Further, the AC50 under setting [2] was 0.58 µM [falling, single point]. Besides, the half-maximal activity concentration (AC50) under setting [1] is 1.64 µM [rising, partial curve, poor fit].
On to `CCOC(=O)c1sc(NC(=O)CSc2nnnn2-c2ccccc2)c(C(=O)OCC)c1C`, for which the cell number change came to 31.8%. Further, the AC50 under setting [2] is 0.651 µM [rising, full curve].
In the case of `COc1ccc(NC(=O)c2c3c(nc4ccccc24)CCC3)cc1S(=O)(=O)N1CCOCC1`, the cell number change was determined as 11.6%. Moreover, the AC50 under setting [1] is 0.461 µM [rising, full curve].
As for `O=C(O)CCC(=O)NNc1ncnc2ccccc12`, the cell number change was determined as 114%. Also, the half-maximal activity concentration (AC50) under setting [2] was 29.1 µM [rising, single point].
For the molecule `CN1CCN(S(=O)(=O)c2ccc(NC(=O)C3CCCCC3)cc2)CC1`, the cell number change worked out at 3.19%. Also, the AC50 under setting [1] was 0.092 µM [falling, full curve, poor fit].
`Cc1cccc(OCC(=O)Nc2ccc3c(c2)C(=O)NC3=O)c1`: the cell number change was determined as 15.6%. The half-maximal activity concentration (AC50) under setting [1] is 29.1 µM [falling, single point].
On to `N[C@@H](Cc1ccc(O)c(I)c1)C(=O)O`, for which the cell number change is -30.7%. Further, under setting [2], the concentration at half-maximal activity (AC50) is 4.61 µM [falling, full curve, poor fit].
On to `Cc1ccc(SC(C)C(=O)Nc2ccccc2C(=O)N2CCOCC2)cc1` (stereo unspecified), for which the cell number change was -19.8%. Under setting [1], the concentration at half-maximal activity (AC50) was 29.1 µM [falling, single point].
Take `O=C(CCCN1C(=O)/C(=C/c2cccs2)SC1=S)NNC(=O)c1cccnc1`: the cell number change is -2.43%. The AC50 under setting [1] was 1.3 µM [rising, full curve].
As to `CCOCCCNC(=O)/C(C#N)=C/c1ccc(-c2ccc(S(=O)(=O)N3CCOCC3)cc2)o1`, the cell number change stood at 6.35%. Moreover, the AC50 under setting [1] is 6.51 µM [rising, single point].
Consider `O=C1COc2ccc(C(=O)COC(=O)CCSc3ccc(Cl)cc3)cc2N1`, for which the half-maximal activity concentration (AC50) under setting [2] is 1.03 µM [falling, full curve].
For the molecule `Cc1cc(C)nc(N2C(=O)CC(C(C)c3ccccc3)C2=O)n1` (stereo unspecified), the cell number change was -41.9%. For the same molecule, the AC50 under setting [2] was 5.8 µM [falling, full curve]. The AC50 under setting [1] was 3.26 µM [falling, full curve].
Turning to `CN=c1scc(-c2ccccc2Br)n1/N=C/c1ccc[nH]1`, the concentration at half-maximal activity (AC50) under setting [1] is 29.1 µM [rising, single point].
For `CCc1nnc(NC(=O)Cn2ccc(C(F)(F)F)n2)s1`, the cell number change is -38%. Besides, under setting [2], the AC50 is 18.4 µM [falling, single point].
Consider `CCCCNC(=O)/C=C/c1cccs1`, for which the cell number change was 35.3%. Under setting [2], the half-maximal activity concentration (AC50) is 20.6 µM [rising, single point]. Besides, under setting [1], the AC50 is 29.1 µM [rising, single point].
In the case of `COCC1CCN(C(=O)c2oc3c(F)cccc3c2C)C1` (stereo unspecified), the cell number change was -9.39%. Besides, under setting [1], the AC50 was 6.51 µM [falling, single point].
As for `NC(=O)Cc1nc(-c2ccc(Br)cc2)cs1`, the cell number change was determined as 77.6%. Moreover, under setting [2], the AC50 is 0.651 µM [rising, full curve, poor fit]. Moreover, the half-maximal activity concentration (AC50) under setting [1] is 0.651 µM [rising, full curve, poor fit].
Turning to `COCC(C)N1CCC(n2nccc2NC(=O)CCCc2ccccc2)CC1` (stereo unspecified), the cell number change is -4.58%. In addition, the AC50 under setting [1] is 29.1 µM [rising, single point].
`CC(NC(=O)CSc1nc2ccccc2n1CCC#N)c1ccc(F)cc1` (stereo unspecified): the cell number change was found to be 31.4%. Moreover, the AC50 under setting [2] is 11.6 µM [rising, partial curve, poor fit]. Under setting [1], the AC50 was 0.651 µM [rising, full curve, poor fit].
As to `O=C(CNS(=O)(=O)c1ccc(Br)s1)N1CCN(c2ncccn2)CC1`, the cell number change came to 253%. Further, the AC50 under setting [2] is 23.1 µM [rising, partial curve]. Under setting [1], the AC50 was 23.1 µM [rising, partial curve].
`COc1cccc(CNC2CCCCCCC2)c1OC`: the cell number change was 4.4%. Besides, under setting [1], the AC50 was 6.51 µM [rising, single point].
Consider `Nc1ccc(S(=O)(=O)Nc2ccccn2)cc1`, for which the cell number change turned out to be 31.6%. In addition, the half-maximal activity concentration (AC50) under setting [2] was 16.4 µM [rising, partial curve, poor fit]. Moreover, under setting [1], the concentration at half-maximal activity (AC50) is 13 µM [rising, partial curve, poor fit].
Take `COc1ccc(C(=O)NCC(=O)OCc2c(Cl)cccc2Cl)cc1OC`: the cell number change was 83.9%. Further, the half-maximal activity concentration (AC50) under setting [2] is 16.4 µM [rising, partial curve].
As for `Clc1ccccc1OCc1nc(-c2ccccn2)no1`, the cell number change was -0.742%. Moreover, the AC50 under setting [1] is 4.61 µM [rising, single point].
`CNC(=O)NC(=O)C(C)OC(=O)c1c2c(nc3ccccc13)/C(=C/c1cccs1)CC2` (stereo unspecified): the cell number change was -35%. For the same molecule, the AC50 under setting [2] was 1.03 µM [falling, full curve]. Further, the AC50 under setting [1] is 0.411 µM [falling, full curve].
Turning to `CCOc1c(Br)cc(C(N)=O)cc1OCc1ccccc1`, the cell number change is -11.6%. Also, the half-maximal activity concentration (AC50) under setting [1] was 3.66 µM [rising, partial curve, poor fit].
On to `COc1cc2ccccc2cc1C(=O)Nc1nnc(-c2ccncc2)o1`, for which the cell number change came to 3.02%. Further, under setting [1], the AC50 is 0.013 µM [rising, full curve, poor fit].
For `CN1CCN(S(=O)(=O)c2ccc(NC(=O)COc3ccccc3Cl)cc2)CC1`, the cell number change is -1.75%.
For `CN1CCCC(OC(=O)COc2ccc(Br)cc2)C1` (stereo unspecified), the cell number change is -33.2%. Besides, the AC50 under setting [2] is 1.64 µM [falling, full curve]. Further, the AC50 under setting [1] was 11.6 µM [falling, partial curve].
For the molecule `Clc1ccc(-c2cc3ccccc3nc2N2CCOCC2)cc1`, the cell number change was 10.4%. For the same molecule, the AC50 under setting [2] is 0.411 µM [rising, full curve, poor fit]. In addition, the concentration at half-maximal activity (AC50) under setting [1] was 1.46 µM [rising, partial curve].
As to `COc1ccc(C(CNC(=O)COc2ccc(C)c(C)c2)N2CCCCC2)cc1` (stereo unspecified), the cell number change was 18.5%. The AC50 under setting [1] was 29.1 µM [rising, single point].
`CN(C)c1nc(C#N)nc(N2CCOCC2)n1`: the cell number change is 6.76%. For the same molecule, under setting [1], the AC50 is 29.1 µM [rising, single point].
Turning to `COc1ccc(OC)c(NC(=O)NCCN2CCN(c3ccccc3)CC2)c1`, the cell number change was found to be 6.94%.
Turning to `c1ccc(-c2ccccc2OCCCN2CCCC2)cc1`, the cell number change is 11.8%. The concentration at half-maximal activity (AC50) under setting [1] is 4.11 µM [rising, partial curve].
For `CC(C)c1ccc(C2CC(=O)c3cnc(NC(=O)c4ccco4)nc3C2)cc1` (stereo unspecified), the cell number change was determined as 3.36%. Under setting [1], the half-maximal activity concentration (AC50) was 18.4 µM [falling, partial curve].
For `O=C1SCCC1NC(=O)C(c1ccccc1)c1ccccc1` (stereo unspecified), the AC50 under setting [1] is 5.8 µM [falling, partial curve].
Regarding `CCC(=O)N1CCN(c2ccc(NC(=O)c3ccc4c(c3)OCO4)cc2)CC1`, the cell number change is -57.2%. Further, the AC50 under setting [2] was 2.91 µM [falling, partial curve]. Also, under setting [1], the AC50 is 2.59 µM [falling, partial curve].
Take `CCCCn1c(SCc2nc(N)nc(Nc3ccccc3C)n2)nc2ccccc2c1=O`: the cell number change was 79.4%. Also, under setting [2], the AC50 was 0.13 µM [rising, full curve]. Besides, the AC50 under setting [1] is 5.17 µM [rising, partial curve].
For the molecule `Cc1ccc(CNc2oc(-c3ccco3)nc2S(=O)(=O)c2ccccc2)cc1`, the cell number change is -25.8%. Besides, the half-maximal activity concentration (AC50) under setting [1] is 29.1 µM [falling, single point].
With `COc1cc(C(CC(=O)N2CCCC2)c2c(OC)cc(OC)c3c(-c4ccccc4)cc(=O)oc23)cc(OC)c1OC` (stereo unspecified), the cell number change was -50%. Besides, the AC50 under setting [2] is 18.4 µM [falling, single point]. Also, the half-maximal activity concentration (AC50) under setting [1] is 16.4 µM [falling, single point].
As for `O=C(CSc1nc(-c2cccs2)cc(C(F)(F)F)n1)Nc1cc(OCC(F)(F)F)cc([N+](=O)[O-])c1`, the cell number change came to 0.594%. In addition, under setting [1], the AC50 is 29.1 µM [falling, single point].
For the molecule `CCCCNC(=O)c1ccc(S(=O)(=O)c2ccc(Cl)cc2)c(NC(C)=O)c1`, the cell number change was determined as 20.1%. Besides, the concentration at half-maximal activity (AC50) under setting [2] is 1.46 µM [rising, partial curve, poor fit]. Further, the AC50 under setting [1] was 1.84 µM [rising, partial curve].
Turning to `COc1ccc2ccccc2c1/C=N/NC(=O)c1cc(C)[nH]n1`, the cell number change is -7.54%. For the same molecule, the concentration at half-maximal activity (AC50) under setting [1] is 4.11 µM [rising, partial curve, poor fit].
`CCN(Cc1ccc(OC)c(F)c1)C(C)C(=O)Nc1ccc(S(=O)(=O)N2CCCC2)cc1` (stereo unspecified): the cell number change came to 14.9%.
`S=C(NCCc1ccc(Cl)cc1)NCc1ccccc1`: the cell number change was -1.98%. The AC50 under setting [1] is 0.58 µM [rising, single point].
As for `O=C(NCCc1ccc2c(c1)OCCO2)c1ccccn1`, the cell number change is -37.3%. Also, the AC50 under setting [2] is 5.17 µM [falling, full curve].
Turning to `O=C1CCC(/C=C/c2ccccc2)=NN1Cc1ccc(F)cc1`, the cell number change was 60.8%.
Consider `C=CCNC(=O)CCc1nnc(C2(c3ccc(Cl)cc3)CCC2)o1`, for which the cell number change is 21.1%. Besides, under setting [2], the AC50 was 4.61 µM [falling, single point]. The AC50 under setting [1] was 6.51 µM [falling, single point].
Consider `O=C(COc1cc2oc(=O)c3c(c2cc1Cl)CCCC3)NCc1cccnc1`, for which the cell number change was -7.31%. In addition, the half-maximal activity concentration (AC50) under setting [2] is 6.51 µM [falling, single point]. For the same molecule, under setting [1], the AC50 is 1.84 µM [falling, partial curve].
On to `COC(=O)c1ccc(OC)c(NS(=O)(=O)c2ccc(-n3cnnn3)cc2)c1`, for which the cell number change stood at 17.1%. The AC50 under setting [1] is 0.206 µM [rising, single point].
In the case of `Cc1cc(-c2nnc(CCC(=O)NC(C)c3cccc4ccccc34)o2)no1` (stereo unspecified), the cell number change is -0.31%. Besides, under setting [1], the half-maximal activity concentration (AC50) was 0.092 µM [falling, full curve, poor fit].
Consider `N#CC1CN(C(c2ccccc2)c2ccccc2)C1`, for which the cell number change is -5.24%.
